The values below come from PubChem BioAssay AID1487 (National Center for Advancing Translational Sciences (NCATS), 2009).

The experiment in a line: qHTS Assay for Modulators of Lamin A Splicing. As to conditions: HeLa LMNA splicing GFP/RFP minigene ratio, 48 h. The method, boiled down:
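S3 HeLa cells stably expressing lamin A-EGFP splicing minigene plus DsRed2, 600 cells/well, 48 h compound exposure at 37C. Laser-scanning cytometry; analysed as GFP (500-530 nm)/RFP (575-640 nm) total intensity ratio; 0.5% DMSO vehicle.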
On the technique in general: Quantitative high-throughput screening tests each substance at several concentrations.

Setting [1] is: measured here: RFP viability control channel.
Setting [2] is: measured here: GFP splicing reporter channel.

Some of the results follow. Further columns of the screen follow, without active or inactive calls. The list favours compounds with an active or inconclusive main result. The note in brackets gives the kind of curve behind each potency; many fits are weak.

The term AC50 denotes the concentration giving half of the maximal activity seen. For the molecule `COC(=O)c1ccc(C(NC(=O)OCc2ccccc2)/C(C)=C/[C@@H](C)C(=O)NCc2ccc(-c3ccccc3)cc2)cc1` (some centres undefined), under setting [1], the AC50 was 31.6 µM [rising, single point].

As to `O=c1cc(NS(=O)(=O)c2ccccc2)nc(SCc2c(Cl)cccc2Cl)[nH]1`, the half-maximal activity concentration (AC50) under setting [1] was 35.5 µM [rising, single point]. As for `CO/N=C(/C(=O)N[C@@H]1C(=O)N2C(C(=O)O)=C(COC(N)=O)CS[C@H]12)c1ccco1`, the half-maximal activity concentration (AC50) under setting [2] is 5.62 µM [rising, partial curve, poor fit].

As to `CCCCOC(=O)CSc1nc2c(c(=O)[nH]c(=O)n2C)n1C/C=C(\C)Cl`, under setting [1], the concentration at half-maximal activity (AC50) was 2.24 µM [rising, full curve, poor fit]. As for `COc1cccc(NC(=O)c2sc3nc4n(c(=O)c3c2C)CCC4)c1`, under setting [2], the AC50 is 35.5 µM [falling, single point]. For the molecule `CN(c1ccccc1)S(=O)(=O)c1ccc(C(=O)Nc2nnc(-c3ccco3)o2)cc1`, under setting [2], the AC50 was 0.0562 µM [rising, single point]. Turning to `CO[C@]1(NC(=O)Cc2cccs2)C(=O)N2C(C(=O)O)=C(COC(N)=O)CS[C@H]21`, under setting [2], the AC50 was 0.562 µM [falling, partial curve]. On to `O=S(=O)(CCSc1nc2ccccc2s1)c1nc2ccccc2s1`, for which the AC50 under setting [2] is 35.5 µM [falling, single point] and the AC50 under setting [1] was 35.5 µM [falling, single point]. Regarding `CC(C)Oc1ccc2c(=O)c(-c3ccccc3)coc2c1`, the AC50 by setting is: under setting [2], 1.12 µM [falling, partial curve, poor fit]; under setting [1], 7.08 µM [rising, partial curve].

On to `CCc1nnc(NC(=O)CSc2nc(C)c3c(c2C#N)CCCC3)s1`, for which the AC50 is 35.5 µM [rising, single point] under setting [2] and 35.5 µM [rising, single point] under setting [1]. Turning to `CCN(CC(=O)N1CCN(c2ccccc2)CC1)S(=O)(=O)c1ccc(C)cc1`, the AC50 by setting is: under setting [2], 5.01 µM [rising, partial curve]; under setting [1], 14.1 µM [rising, partial curve]. For `COc1ccccc1C(N)=S`, under setting [2], the AC50 is 3.98 µM [rising, full curve, poor fit]. Regarding `O=C(NC1CC1)c1ccc(COc2ccc(F)cc2)o1`, the AC50 under setting [1] was 20 µM [rising, single point].

In the case of `CCC(=O)n1nc(NCc2ccccc2OC)nc1NCc1ccccc1OC`, the AC50 under setting [1] was 25.1 µM [rising, single point]. With `S=C(NCCc1ccc(Cl)cc1)NC1CCCC1`, the half-maximal activity concentration (AC50) under setting [1] is 10 µM [rising, partial curve].

For the molecule `CCN(CC)CCNC(=S)Nc1ccc2nc(N3CCCC3)cc(C)c2c1`, the AC50 under setting [1] is 1.12 µM [rising, single point]. In the case of `COC1=CC(=O)C(O)=C/C1=C\C=C\c1ccccc1`, the AC50 reads like this: under setting [2], 3.55 µM [falling, full curve]; under setting [1], 3.55 µM [falling, full curve]. On to `O=S(=O)(c1ccc(N2CCN(S(=O)(=O)c3ccc4c(c3)OCCO4)CC2)nc1)N1CCCC1`, for which the AC50 under setting [1] was 11.2 µM [rising, partial curve].

For `O=C(COc1cccc(NC(=O)c2cccc([N+](=O)[O-])c2)c1)c1ccc(F)cc1`, the half-maximal activity concentration (AC50) is 11.2 µM [rising, single point] under setting [2] and 14.1 µM [rising, partial curve] under setting [1]. As for `COc1cc(/C=N/Nc2ncnc3sc4c(c23)CCC4)ccc1O`, under setting [2], the AC50 was 0.178 µM [falling, full curve]. Turning to `O=C(/C=C/c1cccnc1)c1ccc(NC(=O)c2cccc(Br)c2)cc1`, the AC50 is 35.5 µM [falling, single point] under setting [2] and 28.2 µM [falling, single point] under setting [1]. Consider `Cc1ccc2nc(NC(=O)CN(C)S(=O)(=O)c3ccc(Br)s3)sc2c1`, for which the concentration at half-maximal activity (AC50) under setting [1] is 31.6 µM [rising, single point].

In the case of `FC(F)(F)c1ccc(Oc2ccc3c(C(F)(F)F)cc(C(F)(F)F)nc3n2)cc1`, the AC50 was 0.00794 µM [falling, full curve, poor fit] under setting [2] and 0.00891 µM [falling, full curve, poor fit] under setting [1].

As to `N#Cc1c(C(F)(F)F)cc(C2CC2)nc1N1CCCC1`, the concentration at half-maximal activity (AC50) under setting [1] was 14.1 µM [falling, partial curve, poor fit]. As for `COc1cc2cc(C(c3nnnn3C(C)(C)C)N3CCc4ccccc4C3)c(=O)[nH]c2cc1OC` (centres undefined), the AC50 under setting [1] is 22.4 µM [rising, single point]. As for `COc1cc(NC(=O)C23CC4CC(C2)CC(n2nnc(C)n2)(C4)C3)c(OC)cc1Cl`, the AC50 under setting [1] was 12.6 µM [rising, partial curve]. For `CC(C)C1=CC2=CC[C@@H]3[C@](C)(CO)CCC[C@]3(C)C2CC1` (some centres undefined), the AC50 under setting [1] is 31.6 µM [rising, single point]. For `O=C(O)CSCc1cnn(-c2ccccc2)c1-n1cccc1`, the AC50 runs as follows: under setting [2], 7.08 µM [rising, partial curve]; under setting [1], 11.2 µM [rising, partial curve]. `COc1ccc(C(=O)CCC(=O)Nc2cccnc2)cc1`: under setting [1], the AC50 is 0.0501 µM [falling, full curve, poor fit]. As to `CCN(CC)CCCC(C)NC(=O)c1ccc(C(F)(F)F)cc1` (centres undefined), under setting [1], the AC50 is 10 µM [falling, partial curve, poor fit]. In the case of `Cc1nc(C)c2c(=O)cc(-c3ccccc3)[nH]c2n1`, under setting [1], the AC50 is 2.51 µM [rising, partial curve, poor fit].

`S=C(Nc1ccccc1)c1nc2ccccc2s1`: the AC50 under setting [1] was 0.891 µM [rising, partial curve, poor fit]. For `CNCCOc1ccc(Cl)c(Cl)c1`, the AC50 was 8.91 µM [falling, partial curve, poor fit] under setting [2] and 10 µM [falling, partial curve, poor fit] under setting [1].

Turning to `Clc1ccc2nsnc2c1NC1=NCCN1`, the AC50 is 31.6 µM [falling, partial curve] under setting [2] and 25.1 µM [falling, single point] under setting [1].

In the case of `Cc1ccc(OCC(=O)c2c[nH]c3ccccc23)c([N+](=O)[O-])n1`, the AC50 under setting [1] was 0.794 µM [rising, single point]. On to `COc1cc(-c2nnc(SCC(=O)N(Cc3ccccc3)C(C)(C)C)o2)cc(OC)c1OC`, for which, under setting [1], the half-maximal activity concentration (AC50) was 10 µM [rising, partial curve].

For the molecule `CC1CCC(NC(=O)C(NC(=O)c2ccccc2)C(C)C)CC1` (centres undefined), under setting [1], the AC50 is 0.0224 µM [falling, full curve, poor fit].

On to `O=C(C[n+]1cc(-c2ccccc2)n2c1CCC2)OCc1ccccc1`, for which the AC50 was 0.316 µM [falling, full curve, poor fit] under setting [2] and 0.316 µM [falling, full curve, poor fit] under setting [1].

Take `COc1ccc(NS(=O)(=O)c2ccc3nc(COc4ccc(C#N)cc4)[nH]c3c2)cc1`: the AC50 under setting [2] was 14.1 µM [rising, single point] and the AC50 under setting [1] is 22.4 µM [rising, single point]. With `CCCCNC(=O)c1onc(CSc2cccc(OCC)c2)c1C(=O)O`, the AC50 under setting [1] was 4.47 µM [falling, single point]. `CN1CCCCc2c1nc1c(c2N)CCCC1`: the AC50 under setting [2] was 4.47 µM [rising, partial curve, poor fit]. `COc1ccc(Nc2nc(C)nc3c2nnn3Cc2ccccc2)cc1OC`: the AC50 by setting is: under setting [2], 7.08 µM [rising, partial curve, poor fit]; under setting [1], 14.1 µM [rising, partial curve]. With `Cc1cc(C)n(-c2nnc(NC34CC5CC(CC(C5)C3)C4)nn2)n1`, the half-maximal activity concentration (AC50) under setting [2] is 35.5 µM [rising, single point].

On to `CC(=O)N(C)c1ccc(NC(=O)Nc2ccccc2C)cc1`, for which, under setting [2], the AC50 is 1.78 µM [falling, full curve, poor fit]. Consider `COc1ccc(C2C(C(=O)Nc3ccccc3OC)=C(C)Nc3c(C(=O)Nc4ccccc4)cnn32)c(OC)c1` (centres undefined), for which the AC50 under setting [1] was 0.0224 µM [falling, full curve, poor fit].

With `O=C(Nc1ccc(Cl)cc1)/C(=C/c1cccc(O)c1)c1nc2ccccc2s1`, under setting [1], the AC50 was 3.55 µM [rising, partial curve]. For `COC(=O)c1c(Oc2nc(OC)cc(OC)n2)cccc1Oc1nc(OC)cc(OC)n1`, under setting [2], the AC50 was 20 µM [rising, partial curve, poor fit]. `COc1cn(CC(=O)Nc2ccccc2)c(CN2CCCCC2)cc1=O`: the AC50 runs as follows: under setting [2], 0.0224 µM [rising, full curve]; under setting [1], 0.01 µM [rising, full curve, poor fit].

As for `Cc1ccc(NS(=O)(=O)c2ccc(OCC(=O)NCc3ccncc3)cc2)cc1`, the AC50 under setting [1] is 15.8 µM [rising, partial curve, poor fit]. As to `COc1ccc(/C=N/Nc2nc3ccccc3s2)cc1O`, the AC50 under setting [2] is 22.4 µM [falling, single point]. Take `Cc1nc2sc(-c3ccccc3)cc2c(=O)n1-n1cccc1`: the AC50 runs as follows: under setting [2], 35.5 µM [rising, single point]; under setting [1], 35.5 µM [rising, single point]. As to `COc1ccc(CCNC(=O)Cn2c(=O)c3cccn3c3ccc(F)cc32)c(OC)c1`, under setting [1], the AC50 is 0.00398 µM [falling, full curve, poor fit].

In the case of `O=C1/C(=C/c2cccc3ccccc23)CCCc2ccccc21`, the half-maximal activity concentration (AC50) under setting [1] was 35.5 µM [rising, single point]. For the molecule `Cc1ccc(C)c(-c2nnc(NC(=O)c3ccc4c(c3)OCCO4)o2)c1`, the AC50 under setting [1] is 2.51 µM [rising, partial curve, poor fit]. For `CC(=O)Nc1ccc(S(=O)(=O)Nc2cccn(Cc3ccc(C)cc3)c2=O)cc1`, under setting [1], the AC50 is 12.6 µM [falling, partial curve]. For `COc1cccc(C(=O)Nc2ccc(-n3nncc3-c3ccccc3)cc2)c1`, the AC50 by setting is: under setting [2], 35.5 µM [falling, partial curve, poor fit]; under setting [1], 35.5 µM [falling, partial curve]. As for `Cc1oc2ncn(CC(C)C)c(=O)c2c1C(=O)NCCCN1CCC(C)CC1`, the AC50 under setting [1] is 0.0141 µM [falling, full curve].
